Assay results taken from publication PMC5406781.
No constants are given. Whether binding was seen depends on the method and setting. Some entries that bind do so weakly or less than the wild type. Where a sequence is shown, tags or fusion partners need not be part of it.

Sequences of proteins named here, by UniProt entry; tags and fusion partners are left off.
UniProt Q1D2S1: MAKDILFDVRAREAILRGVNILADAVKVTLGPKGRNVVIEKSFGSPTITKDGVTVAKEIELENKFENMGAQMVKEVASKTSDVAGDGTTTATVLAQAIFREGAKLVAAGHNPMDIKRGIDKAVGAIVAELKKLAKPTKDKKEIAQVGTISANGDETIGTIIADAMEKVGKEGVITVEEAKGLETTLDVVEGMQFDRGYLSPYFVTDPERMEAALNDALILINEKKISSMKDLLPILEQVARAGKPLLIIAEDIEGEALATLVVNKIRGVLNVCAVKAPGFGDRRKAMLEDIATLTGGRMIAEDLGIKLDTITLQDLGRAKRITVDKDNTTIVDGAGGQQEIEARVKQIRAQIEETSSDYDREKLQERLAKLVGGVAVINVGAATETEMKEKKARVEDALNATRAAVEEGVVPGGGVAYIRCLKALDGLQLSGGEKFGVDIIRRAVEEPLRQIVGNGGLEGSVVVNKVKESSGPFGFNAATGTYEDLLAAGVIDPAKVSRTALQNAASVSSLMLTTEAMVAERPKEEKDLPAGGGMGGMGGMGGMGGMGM
UniProt Q1D3Y5: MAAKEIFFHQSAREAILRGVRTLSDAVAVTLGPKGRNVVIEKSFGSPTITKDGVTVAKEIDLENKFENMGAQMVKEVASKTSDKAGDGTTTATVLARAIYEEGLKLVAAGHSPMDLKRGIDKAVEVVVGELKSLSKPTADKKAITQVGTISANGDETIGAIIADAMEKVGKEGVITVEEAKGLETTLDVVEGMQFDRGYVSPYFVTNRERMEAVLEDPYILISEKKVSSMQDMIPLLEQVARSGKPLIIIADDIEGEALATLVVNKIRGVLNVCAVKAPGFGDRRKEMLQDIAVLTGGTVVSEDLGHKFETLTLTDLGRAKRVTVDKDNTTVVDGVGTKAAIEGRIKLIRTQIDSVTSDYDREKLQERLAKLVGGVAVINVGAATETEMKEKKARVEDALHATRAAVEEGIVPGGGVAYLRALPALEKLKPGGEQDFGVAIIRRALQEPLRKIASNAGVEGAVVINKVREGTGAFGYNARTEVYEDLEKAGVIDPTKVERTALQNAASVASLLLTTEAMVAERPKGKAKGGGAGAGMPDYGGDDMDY

What was measured:
[1] = molecular target: Myxococcus xanthus DK1622 GroEL1 (Myxococcus xanthus DK1622) (UniProt Q1D2S1); test: native gel or EMSA; native PAGE (no SDS or mercaptoethanol, run in ice-water) of extracts of E. coli BL21(DE3) cells expressing GroEL1, GroEL2 or GroES alone, or GroEL1/GroEL2 co-expressed with GroES
[2] = molecular target: Myxococcus xanthus DK1622 GroEL2 (Myxococcus xanthus DK1622) (UniProt Q1D3Y5); test: as above

- binding [1]: binds
- binding [2]: binds
B1: Myxococcus xanthus DK1622 GroES without His-tag (protein, UniProt Q1D2S2 1-96)
chain: MKIRPLQDRLIVKRVAEENKTKGGLFIPDTAKEKPLEGKVIAVGNGKVQEDGKVRPLDIKAGDTILFSKYAGTEIKLDGEEHLILREEDVLGVIEK
